Compound in this experiment: CC1Cc2ccccc2N1C(=O)C1CCCN(C1)C(=O)CCl (mixture of isomers) [TRIM25 ligand 11 (diastereomer mixture)]
The experiment can be described thus: probe-labelled cysteine peptide fold change vs DMSO (competition) (log2 fold change); higher = less target engagement (more negative = stronger competition). To be noted: THP-1, incubation time: 4 h.

Sequences of proteins named here, by UniProt entry; tags and fusion partners are left off. A change or cut given only in a name is not applied to a line headed by its entry.
UniProt P54132: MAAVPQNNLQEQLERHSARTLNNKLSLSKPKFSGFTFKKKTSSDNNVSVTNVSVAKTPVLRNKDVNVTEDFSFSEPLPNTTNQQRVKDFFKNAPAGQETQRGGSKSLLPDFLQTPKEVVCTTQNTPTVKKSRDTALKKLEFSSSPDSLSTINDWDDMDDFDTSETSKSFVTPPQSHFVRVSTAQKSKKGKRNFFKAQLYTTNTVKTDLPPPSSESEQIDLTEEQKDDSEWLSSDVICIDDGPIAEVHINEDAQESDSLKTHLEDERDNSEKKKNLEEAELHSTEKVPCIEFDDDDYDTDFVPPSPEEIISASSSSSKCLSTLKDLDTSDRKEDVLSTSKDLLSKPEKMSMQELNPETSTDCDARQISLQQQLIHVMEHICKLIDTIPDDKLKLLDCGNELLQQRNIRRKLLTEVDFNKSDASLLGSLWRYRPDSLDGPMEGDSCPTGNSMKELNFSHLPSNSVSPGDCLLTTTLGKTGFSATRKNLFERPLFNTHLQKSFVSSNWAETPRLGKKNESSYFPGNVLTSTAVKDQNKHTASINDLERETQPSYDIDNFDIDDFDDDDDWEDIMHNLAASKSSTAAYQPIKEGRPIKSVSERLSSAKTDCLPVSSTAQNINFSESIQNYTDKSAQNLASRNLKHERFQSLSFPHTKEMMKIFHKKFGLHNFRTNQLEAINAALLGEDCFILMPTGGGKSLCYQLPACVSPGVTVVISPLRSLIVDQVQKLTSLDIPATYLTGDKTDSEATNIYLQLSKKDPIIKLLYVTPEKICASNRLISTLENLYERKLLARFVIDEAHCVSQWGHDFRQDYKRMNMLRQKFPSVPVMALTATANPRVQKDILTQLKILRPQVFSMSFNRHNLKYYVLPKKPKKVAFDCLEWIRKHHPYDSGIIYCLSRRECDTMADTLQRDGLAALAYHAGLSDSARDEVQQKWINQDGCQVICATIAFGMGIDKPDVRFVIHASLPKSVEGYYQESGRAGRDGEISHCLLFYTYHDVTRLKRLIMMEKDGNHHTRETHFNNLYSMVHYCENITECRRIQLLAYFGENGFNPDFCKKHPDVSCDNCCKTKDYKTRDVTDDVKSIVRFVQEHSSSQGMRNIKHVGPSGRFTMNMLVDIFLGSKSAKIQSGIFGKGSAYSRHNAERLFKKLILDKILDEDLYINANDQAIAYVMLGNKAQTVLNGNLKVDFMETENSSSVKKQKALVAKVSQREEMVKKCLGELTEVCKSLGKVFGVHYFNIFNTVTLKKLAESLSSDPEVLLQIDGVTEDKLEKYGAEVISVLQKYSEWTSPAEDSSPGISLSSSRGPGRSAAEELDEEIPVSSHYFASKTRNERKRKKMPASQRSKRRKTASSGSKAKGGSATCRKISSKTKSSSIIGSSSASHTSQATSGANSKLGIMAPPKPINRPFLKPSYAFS
UniProt O75531: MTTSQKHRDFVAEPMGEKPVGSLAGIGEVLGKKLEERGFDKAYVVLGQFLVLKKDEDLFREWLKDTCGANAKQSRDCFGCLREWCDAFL
UniProt Q9UIF9: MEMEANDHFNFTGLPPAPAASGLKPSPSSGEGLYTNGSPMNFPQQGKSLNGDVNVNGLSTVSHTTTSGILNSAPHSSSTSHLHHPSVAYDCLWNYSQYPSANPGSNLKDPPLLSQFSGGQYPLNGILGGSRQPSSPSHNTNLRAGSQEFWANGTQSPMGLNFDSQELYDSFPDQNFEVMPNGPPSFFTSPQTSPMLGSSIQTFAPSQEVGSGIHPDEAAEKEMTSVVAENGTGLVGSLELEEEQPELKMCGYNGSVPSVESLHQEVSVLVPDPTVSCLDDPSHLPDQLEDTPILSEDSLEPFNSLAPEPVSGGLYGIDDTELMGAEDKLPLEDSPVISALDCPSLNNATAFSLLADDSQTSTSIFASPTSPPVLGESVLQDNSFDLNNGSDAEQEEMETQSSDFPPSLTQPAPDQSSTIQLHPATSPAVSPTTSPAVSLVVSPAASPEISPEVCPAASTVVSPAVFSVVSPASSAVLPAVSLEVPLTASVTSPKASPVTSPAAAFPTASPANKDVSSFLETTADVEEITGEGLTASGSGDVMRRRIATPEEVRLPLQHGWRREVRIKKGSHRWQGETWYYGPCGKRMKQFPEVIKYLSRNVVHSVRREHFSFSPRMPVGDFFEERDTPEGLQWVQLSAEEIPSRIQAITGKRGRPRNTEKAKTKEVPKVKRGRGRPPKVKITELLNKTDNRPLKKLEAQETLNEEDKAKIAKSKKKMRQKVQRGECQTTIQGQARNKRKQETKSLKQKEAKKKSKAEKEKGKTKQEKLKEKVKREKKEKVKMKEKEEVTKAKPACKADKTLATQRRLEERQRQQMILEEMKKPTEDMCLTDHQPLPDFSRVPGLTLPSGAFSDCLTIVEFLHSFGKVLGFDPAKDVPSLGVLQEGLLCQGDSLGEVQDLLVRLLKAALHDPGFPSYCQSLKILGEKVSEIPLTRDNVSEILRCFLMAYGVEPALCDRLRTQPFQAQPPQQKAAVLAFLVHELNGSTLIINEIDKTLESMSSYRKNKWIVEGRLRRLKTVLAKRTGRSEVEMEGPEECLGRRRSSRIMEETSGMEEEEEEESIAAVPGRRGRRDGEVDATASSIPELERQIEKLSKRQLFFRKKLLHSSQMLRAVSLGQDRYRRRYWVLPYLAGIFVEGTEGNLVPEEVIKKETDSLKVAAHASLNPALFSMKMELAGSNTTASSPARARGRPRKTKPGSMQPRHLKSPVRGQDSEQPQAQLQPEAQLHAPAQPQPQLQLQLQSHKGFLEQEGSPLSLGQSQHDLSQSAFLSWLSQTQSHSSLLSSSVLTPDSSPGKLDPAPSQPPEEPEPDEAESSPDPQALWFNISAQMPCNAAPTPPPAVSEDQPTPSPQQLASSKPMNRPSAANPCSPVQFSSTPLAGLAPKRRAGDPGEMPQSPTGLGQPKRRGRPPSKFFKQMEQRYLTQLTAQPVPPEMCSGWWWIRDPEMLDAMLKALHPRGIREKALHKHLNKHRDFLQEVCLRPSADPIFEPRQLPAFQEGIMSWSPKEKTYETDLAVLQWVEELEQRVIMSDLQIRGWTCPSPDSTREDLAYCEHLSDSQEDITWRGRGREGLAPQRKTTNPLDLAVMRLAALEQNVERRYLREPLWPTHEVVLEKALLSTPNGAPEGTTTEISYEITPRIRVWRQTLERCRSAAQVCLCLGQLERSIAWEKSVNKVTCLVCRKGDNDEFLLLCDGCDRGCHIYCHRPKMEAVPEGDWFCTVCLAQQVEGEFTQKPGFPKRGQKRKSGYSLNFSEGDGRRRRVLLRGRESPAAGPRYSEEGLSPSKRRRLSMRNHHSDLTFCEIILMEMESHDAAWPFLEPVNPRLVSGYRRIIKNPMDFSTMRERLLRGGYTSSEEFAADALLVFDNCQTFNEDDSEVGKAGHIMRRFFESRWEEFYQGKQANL
UniProt O43505: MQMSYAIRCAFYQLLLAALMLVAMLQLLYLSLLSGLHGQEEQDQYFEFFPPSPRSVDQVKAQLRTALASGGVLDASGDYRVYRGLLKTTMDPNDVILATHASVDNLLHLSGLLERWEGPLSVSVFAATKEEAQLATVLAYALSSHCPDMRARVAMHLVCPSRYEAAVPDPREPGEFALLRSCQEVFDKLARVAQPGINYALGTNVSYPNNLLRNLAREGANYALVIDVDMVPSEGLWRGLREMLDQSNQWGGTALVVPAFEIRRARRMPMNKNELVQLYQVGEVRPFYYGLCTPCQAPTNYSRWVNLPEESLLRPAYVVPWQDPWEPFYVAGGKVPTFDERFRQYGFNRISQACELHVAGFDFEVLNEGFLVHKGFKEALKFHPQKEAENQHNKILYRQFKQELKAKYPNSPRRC
UniProt O95861: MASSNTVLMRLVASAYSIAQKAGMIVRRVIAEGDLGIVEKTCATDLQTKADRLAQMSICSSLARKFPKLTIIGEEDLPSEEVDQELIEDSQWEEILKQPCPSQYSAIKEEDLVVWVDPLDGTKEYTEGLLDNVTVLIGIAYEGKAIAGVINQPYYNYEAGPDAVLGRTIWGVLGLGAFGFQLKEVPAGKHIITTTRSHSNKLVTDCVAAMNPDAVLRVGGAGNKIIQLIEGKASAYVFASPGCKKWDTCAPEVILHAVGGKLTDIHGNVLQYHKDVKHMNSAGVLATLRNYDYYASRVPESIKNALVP
UniProt Q9UL15: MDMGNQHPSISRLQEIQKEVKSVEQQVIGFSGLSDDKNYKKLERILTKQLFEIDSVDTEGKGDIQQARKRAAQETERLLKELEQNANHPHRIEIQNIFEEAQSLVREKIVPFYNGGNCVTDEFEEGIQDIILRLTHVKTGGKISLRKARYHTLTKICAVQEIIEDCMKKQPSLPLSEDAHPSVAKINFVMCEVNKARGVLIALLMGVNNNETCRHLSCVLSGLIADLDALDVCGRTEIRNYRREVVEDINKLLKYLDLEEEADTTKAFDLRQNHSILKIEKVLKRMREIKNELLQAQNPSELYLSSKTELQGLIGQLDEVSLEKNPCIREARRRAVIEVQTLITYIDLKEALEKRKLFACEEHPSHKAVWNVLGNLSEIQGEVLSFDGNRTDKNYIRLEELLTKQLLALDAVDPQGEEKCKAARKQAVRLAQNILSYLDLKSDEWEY
UniProt P54687: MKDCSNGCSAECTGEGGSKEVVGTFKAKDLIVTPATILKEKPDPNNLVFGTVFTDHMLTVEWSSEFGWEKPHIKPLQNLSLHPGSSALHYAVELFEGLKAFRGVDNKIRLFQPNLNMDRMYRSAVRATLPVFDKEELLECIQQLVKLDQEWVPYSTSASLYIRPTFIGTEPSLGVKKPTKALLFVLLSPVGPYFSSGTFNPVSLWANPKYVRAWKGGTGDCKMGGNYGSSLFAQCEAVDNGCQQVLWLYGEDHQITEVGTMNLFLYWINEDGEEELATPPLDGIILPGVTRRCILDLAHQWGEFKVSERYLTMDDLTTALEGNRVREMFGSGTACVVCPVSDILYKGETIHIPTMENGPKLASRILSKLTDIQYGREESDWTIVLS
UniProt Q14137: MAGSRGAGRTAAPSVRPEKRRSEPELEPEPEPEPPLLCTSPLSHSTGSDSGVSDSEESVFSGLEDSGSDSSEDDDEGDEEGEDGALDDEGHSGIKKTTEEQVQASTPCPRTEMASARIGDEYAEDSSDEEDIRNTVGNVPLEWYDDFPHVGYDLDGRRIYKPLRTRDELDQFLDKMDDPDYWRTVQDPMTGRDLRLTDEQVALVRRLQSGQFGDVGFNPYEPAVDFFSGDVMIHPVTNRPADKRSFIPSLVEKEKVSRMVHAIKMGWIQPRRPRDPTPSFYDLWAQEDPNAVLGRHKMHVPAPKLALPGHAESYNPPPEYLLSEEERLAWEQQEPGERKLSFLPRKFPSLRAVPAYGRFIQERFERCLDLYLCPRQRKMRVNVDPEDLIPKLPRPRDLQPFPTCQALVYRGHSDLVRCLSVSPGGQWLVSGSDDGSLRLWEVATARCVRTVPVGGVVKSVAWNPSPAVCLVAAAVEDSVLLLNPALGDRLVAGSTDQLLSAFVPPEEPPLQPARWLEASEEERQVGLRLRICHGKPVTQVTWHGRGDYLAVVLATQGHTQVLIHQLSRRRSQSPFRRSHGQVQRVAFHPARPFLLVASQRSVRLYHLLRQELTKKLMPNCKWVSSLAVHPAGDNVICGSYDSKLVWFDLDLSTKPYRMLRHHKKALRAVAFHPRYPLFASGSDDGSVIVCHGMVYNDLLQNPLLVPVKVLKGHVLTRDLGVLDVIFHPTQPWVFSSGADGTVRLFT
UniProt O95999: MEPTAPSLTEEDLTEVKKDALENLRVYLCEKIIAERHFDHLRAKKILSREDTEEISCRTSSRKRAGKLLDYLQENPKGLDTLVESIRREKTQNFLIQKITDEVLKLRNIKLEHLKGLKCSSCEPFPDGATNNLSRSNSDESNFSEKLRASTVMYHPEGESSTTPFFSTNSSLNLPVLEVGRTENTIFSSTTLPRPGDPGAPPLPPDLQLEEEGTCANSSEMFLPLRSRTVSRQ
UniProt Q9UBB4: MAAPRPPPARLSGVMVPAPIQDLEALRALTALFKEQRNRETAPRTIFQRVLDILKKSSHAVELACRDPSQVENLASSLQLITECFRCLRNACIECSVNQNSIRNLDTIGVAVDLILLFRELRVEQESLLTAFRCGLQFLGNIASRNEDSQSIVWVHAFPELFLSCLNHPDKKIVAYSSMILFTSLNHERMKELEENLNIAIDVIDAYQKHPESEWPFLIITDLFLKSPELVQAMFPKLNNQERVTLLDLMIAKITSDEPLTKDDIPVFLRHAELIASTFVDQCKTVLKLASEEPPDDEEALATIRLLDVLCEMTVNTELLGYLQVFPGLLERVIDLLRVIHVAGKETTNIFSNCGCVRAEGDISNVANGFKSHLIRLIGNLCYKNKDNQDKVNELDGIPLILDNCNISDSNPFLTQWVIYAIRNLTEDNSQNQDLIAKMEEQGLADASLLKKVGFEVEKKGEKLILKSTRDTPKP

This is one part of the list.

The record followed here is the supplement of paper PMC12067093, “Discovery and optimisation of a covalent ligand for TRIM25 and its application to targeted protein ubiquitination” (Chemical Science, 2025).
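Further: competitive chemoproteomic profiling in live THP-1 cells with an iodoacetamide desthiobiotin (IA-DTB) probe, comparing probe-labelled peptide intensities in compound-treated cells against DMSO-treated controls.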

As to “BLM_P54132_1364_GGSATCR (UniProt P54132)”, the “probe-labelled cysteine peptide fold change” value is -0.0198 (10 µM) and -0.0557 (50 µM).

For the target “BCKDK_O14874_222_MLATHHLALHEDKPDFVGIICTR (UniProt O14874)”, the “probe-labelled cysteine peptide fold change” value by setting is: (10 µM) -0.00244; (50 µM) 0.273.

In the case of “BANF1_O75531_77_DCFGCLR (UniProt O75531)”, the “probe-labelled cysteine peptide fold change” value was -0.192 (10 µM) and 0.0113 (50 µM).

Turning to “ATXN2L_Q8WWM7_135_MLHFLTAVVGSTCDVK (UniProt Q8WWM7)”, the “probe-labelled cysteine peptide fold change” value runs as follows: (10 µM) -0.0311; (50 µM) -0.00568.

Take “BCKDHA_P12694_178_DYPLELFMAQCYGNISDLGK (UniProt P12694)”: the “probe-labelled cysteine peptide fold change” value (10 µM) was -0.0403 and the “probe-labelled cysteine peptide fold change” value (50 µM) was -0.212.

As for “BLMH_Q13867_164_CFPESYTTEATR (UniProt Q13867)”, the “probe-labelled cysteine peptide fold change” value (10 µM) turned out to be 0.0281 and the “probe-labelled cysteine peptide fold change” value (50 µM) was -0.0517.

For “BOD1L1_Q8NFC6_1170_TCTADSK (UniProt Q8NFC6)”, the “probe-labelled cysteine peptide fold change” value reads like this: (10 µM) -0.0161; (50 µM) -0.0752.

As to “BAZ2A_Q9UIF9_1697_KGDNDEFLLLCDGCDR (UniProt Q9UIF9)”, the “probe-labelled cysteine peptide fold change” value runs as follows: (10 µM) 0.0208; (50 µM) -0.0208.

On to “BAHCC1_Q9P281_683_GPGQSERPDCAR (UniProt Q9P281)”, for which the “probe-labelled cysteine peptide fold change” value runs as follows: (10 µM) -0.0273; (50 µM) -0.0998.

Regarding “BMI1_P35226_166_CPAAMTVMHLR (UniProt P35226)”, the “probe-labelled cysteine peptide fold change” value was -0.078 (10 µM) and -0.0532 (50 µM).

With “BPGM_P07738_145_VCDVPLDQLPR (UniProt P07738)”, the “probe-labelled cysteine peptide fold change” value is, setting by setting: (10 µM) -0.246; (50 µM) 0.0525.

As to “BAZ1B_Q9UIG0_1420_QVFTNAEVYNCR (UniProt Q9UIG0)”, the “probe-labelled cysteine peptide fold change” value (10 µM) is 0.172 and the “probe-labelled cysteine peptide fold change” value (50 µM) worked out at 0.044.

Regarding “B4GAT1_O43505_146_EEAQLATVLAYALSSHCPDMR (UniProt O43505+B4GAT1)”, the “probe-labelled cysteine peptide fold change” value was -0.0228 (10 µM) and -0.0192 (50 µM).

On to “BPNT1_O95861_249_KWDTCAPEVILHAVGGK (UniProt O95861)”, for which the “probe-labelled cysteine peptide fold change” value (10 µM) was -0.0317 and the “probe-labelled cysteine peptide fold change” value (50 µM) was 0.00684.

For the target “BAG5_Q9UL15_218_HLSCVLSGLIADLDALDVCGR (UniProt Q9UL15)”, the “probe-labelled cysteine peptide fold change” value was -0.178 (10 µM) and -0.439 (50 µM).

Regarding “BARGIN_Q6ZT62_346_QTMASDPHSLEEFCSDPHAVAGALK (UniProt Q6ZT62)”, the “probe-labelled cysteine peptide fold change” value is, setting by setting: (10 µM) -0.0814; (50 µM) -0.00364.

In the case of “BIRC6_Q9NR09_1357_TDDGQITEHAQSLVLDTLCWLAGVHSNGPGSSK (UniProt Q9NR09)”, the “probe-labelled cysteine peptide fold change” value by setting is: (10 µM) -0.0242; (50 µM) -0.0222.

On to “AURKB_Q96GD4_191_TATIMEELADALMYCHGKK (UniProt Q96GD4)”, for which the “probe-labelled cysteine peptide fold change” value runs as follows: (10 µM) -0.412; (50 µM) -0.0919.

Turning to “BCAT1_P54687_293_RCILDLAHQWGEFK (UniProt P54687)”, the “probe-labelled cysteine peptide fold change” value is -0.191 (10 µM) and -0.0959 (50 µM).

As for “BCKDK_O14874_118_CLPFIIGCNPTILHVHELYIR (UniProt O14874)”, the “probe-labelled cysteine peptide fold change” value was 0.128 (10 µM) and 0.102 (50 µM).

In the case of “BOP1_Q14137_373_CLDLYLCPR (UniProt Q14137)”, the “probe-labelled cysteine peptide fold change” value is -0.0618 (10 µM) and -0.109 (50 µM).

As to “ATRX_P46100_605_GADCQEVPQDK (UniProt P46100)”, the “probe-labelled cysteine peptide fold change” value was -0.192 (10 µM) and -0.41 (50 µM).

Take “B4GALT3_O60512_190+209_EALRDEEWDCLFLHDVDLLPENDHNLYVCDPR (UniProt O60512)”: the “probe-labelled cysteine peptide fold change” value by setting is: (10 µM) 0.508; (50 µM) 0.0545.

Regarding “ATXN2_Q99700_892_RGPEVTSQGVQTSSPACK (UniProt Q99700)”, the “probe-labelled cysteine peptide fold change” value (10 µM) is -0.0754 and the “probe-labelled cysteine peptide fold change” value (50 µM) was -0.146.

As to “B4GALT3_O60512_209_EALRDEEWDCLFLHDVDLLPENDHNLYVCDPR (UniProt O60512)”, the “probe-labelled cysteine peptide fold change” value reads like this: (10 µM) 0.0102; (50 µM) -0.078.

As for “BCL10_O95999_57_EDTEEISCR (UniProt O95999)”, the “probe-labelled cysteine peptide fold change” value is 0.104 (10 µM) and 0.15 (50 µM).

Turning to “BANF1_O75531_67_DTCGANAK (UniProt O75531)”, the “probe-labelled cysteine peptide fold change” value runs as follows: (10 µM) -0.084; (50 µM) 0.00517.

As for “AZU1_P20160_207+222_RGGICNGDGGTPLVCEGLAHGVASFSLGPCGR (UniProt P20160)”, the “probe-labelled cysteine peptide fold change” value amounted to 0.486 (10 µM) and 0.439 (50 µM).

Take “BAZ1A_Q9NRL2_586_GGFDATDDACMELR (UniProt Q9NRL2)”: the “probe-labelled cysteine peptide fold change” value is, setting by setting: (10 µM) -0.13; (50 µM) -0.109.

As to “BIRC2_Q13490_315_CWESGDDPWVEHAK (UniProt Q13490)”, the “probe-labelled cysteine peptide fold change” value by setting is: (10 µM) 0.127; (50 µM) 0.0958.

Turning to “BAG5_Q9UL15_157+166_ICAVQEIIEDCMK (UniProt Q9UL15)”, the “probe-labelled cysteine peptide fold change” value (10 µM) turned out to be 0.312 and the “probe-labelled cysteine peptide fold change” value (50 µM) turned out to be 0.174.

Turning to “BCAT1_P54687_293_CILDLAHQWGEFK (UniProt P54687)”, the “probe-labelled cysteine peptide fold change” value runs as follows: (10 µM) -0.0437; (50 µM) -0.0238.

As to “ATR_Q13535_1343_GCQDANSQAR (UniProt Q13535)”, the “probe-labelled cysteine peptide fold change” value runs as follows: (10 µM) 0.132; (50 µM) 0.0788.

For “BABAM1_Q9NWV8_222_TILVYSRPPCQPQFSLTEPMKK (UniProt Q9NWV8)”, the “probe-labelled cysteine peptide fold change” value was -0.0268 (10 µM) and -0.16 (50 µM).

For “ATXN10_Q9UBB4_382_LIGNLCYK (UniProt Q9UBB4)”, the “probe-labelled cysteine peptide fold change” value runs as follows: (10 µM) -0.0223; (50 µM) 0.00768.

As for “ATXN10_Q9UBB4_92_NACIECSVNQNSIR (UniProt Q9UBB4)”, the “probe-labelled cysteine peptide fold change” value reads like this: (10 µM) 0.00922; (50 µM) 0.199.
